Earlier results, collected in PMC10349193 (CPT: Pharmacometrics & Systems Pharmacology, 2023).

Columns and labels:
[1] = tested on: MDCK II; conditions: fluvoxamine file with reference compounds; ref SimCYP library version 19; cited from earlier work
[2] = tested on: Caco-2; conditions: pH 7.4: pH 7.4, Passive&Active; erythromycin file with reference compounds; ref SimCYP library version 19; cited from earlier work

## CC(C)NCC(O)COc1ccc(CC(N)=O)cc1 (centres unmarked) [Atenolol]
[1]
  MDCK II Papp: 0.26 10^-6 cm/s
[2]
  Caco-2 Papp: 1.91 10^-6 cm/s
